Experimental data taken from PubChem BioAssay AID540276 (National Center for Advancing Translational Sciences (NCATS), 2011).
Among all 300,000 compounds or so, about 5,400 (1.8%) were called active. The shares of active, inactive and inconclusive entries below differ from those in the screen. Calls follow the shape of the full dose curve; tested in HEK293 cells. Potencies beside an inconclusive call are fits to weak or partial responses and may not hold up.

Assay: qHTS for inhibitors of binding or entry into cells for Marburg Virus
Conditions: Marburg virus pseudotyped entry inhibition, cell reporter; series mostly up to 37.8 µM
Potency is read from the fitted curve at half-maximal effect.

SMILES	Potency
CC1CCCCC12NC(=O)N(CC(=O)OCc1ccccc1F)C2=O (stereo not drawn)	inactive
Cc1ccc(C)c(Cn2c(CO)nc3ccccc32)c1	inconclusive: 14.1 µM [inhibitor, single point]
O=C(Cn1c(=O)oc2cc(S(=O)(=O)N3CCCCCC3)ccc21)Nc1ccc(F)cc1F	inconclusive: 12.6 µM [inhibitor, partial curve]
CC(=O)Nc1ccc(N2CCN(Cc3ccccc3F)CC2)cc1	inactive
CCC12C(=O)C(CC)(C(c3ccccc3)=C1c1ccccc1)[C@@H]1C(=O)N(c3ccccc3)C(=O)C12 (stereo partly drawn)	inconclusive: 35.5 µM [inhibitor, single point]
COc1ccc(C(c2nnnn2CS(=O)(=O)c2ccc(C)cc2)N2CCN(Cc3ccccc3)CC2)cc1 (stereo not drawn)	inconclusive: 11.2 µM [inhibitor, partial curve]
COc1ccc(CCNC(=O)c2nc(SCc3ccccc3F)ncc2Cl)cc1OC	inconclusive: 20 µM [inhibitor, partial curve, poor fit]
Cc1cccc(C(=O)NC(=S)NNC(=O)COc2c(C)cccc2C)c1	inconclusive: 14.1 µM [activator, single point]
COc1cc(CN(C)C(=O)C(=O)c2c[nH]c3ccccc23)ccc1O	inconclusive: 6.31 µM [activator, single point]
Cc1ccc(C(=O)Oc2ccc(Cl)c3cccnc23)cc1[N+](=O)[O-]	inconclusive: 0.562 µM [inhibitor, full curve, poor fit]
O=C(Nc1ccc2c(c1)OCCO2)c1ccc(Br)c(S(=O)(=O)N2CCOCC2)c1	inconclusive: 15.8 µM [inhibitor, single point]
CCc1ccc(-c2nc(SCC(=O)NCC3CCCO3)c(-c3ccc(C)cc3)[nH]2)cc1 (stereo not drawn)	inconclusive: 3.16 µM [inhibitor, single point]
Cc1cccc(C)c1NC(=O)Cn1c(=O)n(CCCS(=O)(=O)C2CCCCC2)c(=O)c2ccccc21	inactive
O=S(=O)(c1cccc(F)c1)N1CCc2sccc2C1c1ccc(OC(F)(F)F)cc1 (stereo not drawn)	inconclusive: 14.1 µM [inhibitor, partial curve, poor fit]
FC(F)(F)c1ccc(CSc2nccn2-c2ccccc2)cc1	inactive
CCOC(=O)c1sc(N)c(C#N)c1CSc1nnc(C2CC2)n1N	inactive
O/N=C/c1ccc(-c2ccccc2OC(F)(F)F)o1	inconclusive: 11.2 µM [activator, single point]
CCCN(C(=O)Cn1ncc2c1-c1ccccc1OC2)c1cccc(C)c1	inactive
CCOC(=O)c1c(NC(=O)C2=C(C)NC(=S)NC2c2ccccc2C(F)(F)F)sc(C)c1C (stereo not drawn)	inconclusive: 12.6 µM [inhibitor, partial curve]
C[n+]1cc[nH]c1SCC(=O)c1ccccc1	inconclusive: 0.282 µM [activator, full curve, poor fit]
CC(=O)N(C1=C(N)C(=O)c2ccccc2C1=O)C(C)C	inactive
CC1(C)CC(=O)C(C=Nc2ccc3[nH]ncc3c2)=C(O)C1	inactive
CCOC(=O)c1sc2ncn(/N=C/c3ccccn3)c(=O)c2c1C	inactive

Molecules listed so far that have a Cl atom:
SMILES	Potency
COc1ccc(CCNC(=O)c2nc(SCc3ccccc3F)ncc2Cl)cc1OC	inconclusive: 20 µM [inhibitor, partial curve, poor fit]
Cc1ccc(C(=O)Oc2ccc(Cl)c3cccnc23)cc1[N+](=O)[O-]	inconclusive: 0.562 µM [inhibitor, full curve, poor fit]

(next part)

SMILES	Potency
CCOC(=O)CN1C(=O)C(Sc2n[nH]c(-c3ccc(O)cc3)n2)CCc2ccccc21 (stereo not drawn)	inconclusive: 35.5 µM [inhibitor, partial curve, poor fit]
Cc1cc(C(=O)N(CCC#N)Cc2cccs2)no1	inconclusive: 0.316 µM [inhibitor, partial curve, poor fit]
Cc1cc(NC(=O)c2ccc(Cl)cc2)no1	inconclusive: 20.6 µM [activator, partial curve, poor fit]
COc1cc(/C=N/NC(=O)c2ccncc2)ccc1OCc1cnc(Cl)s1	inconclusive: 6.31 µM [activator, full curve, poor fit]
COc1ccc2c(c1OC)C(=O)N1c3cccc(Cl)c3C(=O)OC21 (stereo not drawn)	inactive
Cc1ccc(NC(=O)CC2Nc3cc(C)c(C)cc3NC2=O)c(C)c1 (stereo not drawn)	inactive
Cc1sc2nc(SCCN(C)C)n(-c3ccccc3)c(=O)c2c1-c1ccc(F)cc1	inconclusive: 15.8 µM [inhibitor, partial curve, poor fit]
CCOc1ccc(C2C(C(=O)c3cccs3)=C(O)C(=O)N2Cc2cccnc2)cc1 (stereo not drawn)	inactive
Cc1ccc(Cl)cc1N1CCN(Cc2nnnn2C2CCCCC2)CC1	inconclusive: 11.2 µM [inhibitor, partial curve, poor fit]
CCN(CC)CCNC(=O)COc1ccc(OC)cc1	inactive
COc1ccc(C(=O)C2CCCN(Cc3ccsc3)C2)cc1OC (stereo not drawn)	inconclusive: 35.5 µM [inhibitor, single point]
COc1ccc2[nH]c(=O)c(CN(C(=O)C3CCCO3)c3ccc(C)c(C)c3)cc2c1 (stereo not drawn)	inconclusive: 6.31 µM [activator, single point]
C=CCOC(=O)C(C#N)c1nc2ccccc2nc1N1CCN(Cc2ccc3c(c2)OCO3)CC1 (stereo not drawn)	inconclusive: 12.6 µM [inhibitor, single point]
CC1Cc2ccccc2N1S(=O)(=O)c1cccc(C(=O)N2CCCCC2)c1 (stereo not drawn)	inconclusive: 17.8 µM [inhibitor, single point]
Nn1cnnc1SCC(=O)N(C1CCCCC1)C1CCCCC1	inconclusive: 35.5 µM [inhibitor, single point]
CCC(=O)Nc1cccc(-c2nc3ccccc3c(=O)o2)c1	inactive
CC1=C(CCN2CCN(C(C)C)C(CCO)C2)C(C)(C)CCC1 (stereo not drawn)	inconclusive: 10 µM [inhibitor, partial curve, poor fit]
Cc1occc1C(=O)NNC(=O)COc1ccc(Br)cc1Br	inactive
CCN1CCC2(CC1)Oc1c(OC)cccc1C1CC(c3cccnc3)=NN12 (stereo not drawn)	inconclusive: 5.62 µM [activator, full curve]
Cc1ccsc1C(=O)NNC(=O)C1CC=CCC1C(=O)O (stereo not drawn)	inconclusive: 0.447 µM [activator, full curve, poor fit]
CCOC(=O)c1cnc(-c2ccccc2O)nc1Cl	inconclusive: 3.98 µM [activator, full curve, poor fit]
Cc1cccc2c1N(C(=O)CN1C(=O)c3ccccc3C1=O)C(C)(C)c1ssc(=S)c1-2	inconclusive: 2.51 µM [activator, single point]
CCc1ccc2c(c1)/C(=C/C(=O)c1cccs1)C(=O)N2	inconclusive: 29.1 µM [inhibitor, single point]

Looked up above.
Value of Cc1cc(NC(=O)c2ccc(Cl)cc2)no1 under Potency: inconclusive: 20.6 µM [activator, partial curve, poor fit]
Value of Cc1ccc(Cl)cc1N1CCN(Cc2nnnn2C2CCCCC2)CC1 under Potency: inconclusive: 11.2 µM [inhibitor, partial curve, poor fit]

Next part.

SMILES	Potency
O=C(NNC(=O)C1CC=CCC1)c1ccccc1Cl (stereo not drawn)	inconclusive: 10 µM [activator, single point]
Cc1ccccc1CSCc1nc2ccccc2[nH]1	inconclusive: 1.58 µM [activator, full curve, poor fit]
O=C(O)COc1ccccc1C1C2C(=O)N(c3ccc(F)cc3)C(=O)C2ON1c1ccccc1 (stereo not drawn)	inconclusive: 3.98 µM [activator, full curve, poor fit]
O=C(CCNC(=O)c1ccco1)Nc1ccccc1	inconclusive: 35.5 µM [activator, single point]
CN(Cc1ccccc1)c1nc(CN2CCOCC2)nc2scc(-c3ccccc3)c12	inactive
N#C/C(=C(/O)CN1CCCC1)c1nc(-c2ccccc2)cs1	inactive
COc1ccc2[nH]c3c(c2c1)CCC/C3=N\N	inconclusive: 3.16 µM [inhibitor, partial curve, poor fit]
CCc1ccc(NC(=O)COc2ccc(Br)cn2)cc1	inconclusive: 10 µM [activator, single point]
CCn1c(=O)c([N+](=O)[O-])c(N2CCSCC2)c2ccccc21	inconclusive: 35.5 µM [inhibitor, single point]
O=C(COC(=O)CCc1ccccc1)NC12CC3CC(CC(C3)C1)C2	inconclusive: 35.5 µM [activator, single point]
O=C(NCCCc1nc2ccccc2n1Cc1ccccc1Cl)c1ccco1	inactive
COc1ccc(CN2C(=O)c3ccccc3C(/C=N\OCc3ccc(F)cc3)C2=O)cc1 (stereo not drawn)	inactive
CC(=O)c1ccc(NC(=O)CCC(=O)N2CC(C)Oc3ccc(C)cc32)cc1 (stereo not drawn)	inactive
CC(C)C(=O)Nc1ccc(C(=O)N/N=C/c2cc(Br)cc(Br)c2O)cc1	inconclusive: 3.16 µM [inhibitor, full curve]
CC12CCC(=O)C=C1CCC1C2C(O)CC2(C)C(c3csc(N)n3)CCC12 (stereo not drawn)	active: 8.91 µM
CN(C)c1nc(NCc2ccccc2)nc(SCC(=O)Nc2ccc(Cl)c(Cl)c2)n1	active: 11.6 µM
CCCCN(C)CCN1C(=O)C2C(C(=O)Nc3ccc(OC)cc3)C3C=CC2(O3)C1C(=O)NC1CCCCC1 (stereo not drawn)	inconclusive: 5.62 µM [inhibitor, full curve, poor fit]
N/C(CS(=O)(=O)c1ccccc1)=N\OC(=O)c1ccc(F)cc1	inconclusive: 8.91 µM [activator, partial curve, poor fit]
CN(CCC#N)C(=O)COC(=O)c1ccccc1C(=O)c1ccc(Cl)c([N+](=O)[O-])c1	inconclusive: 4.47 µM [inhibitor, full curve, poor fit]
Cc1nn(-c2ccc(Cl)c(Cl)c2Cl)c(=O)c2ccccc12	inactive
O=S(=O)(Nc1c(O)ccc2ccccc12)c1cccc2ccccc12	inconclusive: 10 µM [inhibitor, partial curve]
O=C(NCc1ccc(F)cc1)C(C(=O)NCc1ccc(F)cc1)c1ncc(C(F)(F)F)cc1Cl	inconclusive: 1.58 µM [inhibitor, partial curve, poor fit]
